From the supplement of paper PMC6078165

Test system: MDAMB231
Assay: relative JC-1 red fluorescence (viability) vs pre-drug, coculture with fibroblast (fraction); higher = more viable cancer cells
Protocol: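 JC-1 labelled TNBC cells cocultured 1:1 (1,500 cells each) with CellTrace Violet stained primary or stromal fibroblasts in 384-well plates in FluoroBrite medium, treated with one of 42 anticancer drugs at 0.1, 1, 10 or 100 uM. JC-1 red fluorescence (mitochondrial integrity in cancer cells only) was read by plate reader every 8 h for 72 h. Values are normalised to each well's pre-drug value. The stock of one drug was tenfold lower, so its dose labels may be too high.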

CC[C@]1(O)C[C@@H]2CN(CCc3c([nH]c4ccccc34)[C@@](C(=O)OC)(c3cc4c(cc3OC)N(C)[C@H]3[C@@](O)(C(=O)OC)[C@H](OC(C)=O)[C@]5(CC)C=CCN6CC[C@]43[C@@H]65)C2)C1 [Vinblastine]
relative JC-1 red fluorescence
Conditions	8 h	16 h	24 h	32 h	40 h	48 h	56 h	64 h	72 h
10 µM, coculture fibroblast: C12385	0.7053	0.7137	0.6012	0.64	0.583	0.553	0.506	0.492	0.463
10 µM, coculture fibroblast: H6013	0.874	0.848	0.819	0.8	0.756	0.723	0.706	0.683	0.652
10 µM, coculture fibroblast: H6019	0.749	0.7036	0.637	0.646	0.603	0.581	0.563	0.565	0.547
10 µM, coculture fibroblast: H6076	0.889	0.874	0.827	0.803	0.759	0.732	0.691	0.659	0.653
10 µM, coculture fibroblast: H6231	0.88328	0.8248	0.768	0.731	0.692	0.669	0.637	0.621	0.592
10 µM, coculture fibroblast: HADF	0.8838	0.861	0.835	0.814	0.768	0.714	0.7073	0.6904	0.63
10 µM, coculture fibroblast: HCFa	0.889	0.8639	0.844	0.823	0.764	0.707	0.698	0.659	0.624
10 µM, coculture fibroblast: HCPF	0.898	0.845	0.8001	0.7803	0.738	0.709	0.672	0.635	0.604
10 µM, coculture fibroblast: HHSteC	0.8907	0.8992	0.8612	0.8221	0.7886	0.7489	0.7086	0.688	0.641
10 µM, coculture fibroblast: HMF	0.905	0.857	0.8123	0.7736	0.7311	0.6856	0.6552	0.631	0.601
10 µM, coculture fibroblast: HPFa	0.93009	0.916	0.867	0.812	0.804	0.76	0.7	0.68	0.638
10 µM, coculture fibroblast: HUF	0.841	0.773	0.815	0.733	0.69	0.673	0.627	0.625	0.607
10 µM, coculture fibroblast: Hs5	0.907	0.8782	0.82896	0.7878	0.7416	0.689	0.633	0.597	0.557
10 µM, coculture fibroblast: Hs27A	0.893	0.857	0.829	0.817	0.775	0.706	0.737	0.736	0.701
10 µM, coculture fibroblast: Hs343T	0.914	0.869	0.81	0.778	0.724	0.689	0.633	0.6	0.561
10 µM, coculture fibroblast: WS1	0.719	0.722	0.588	0.612	0.567	0.524	0.471	0.451	0.423
100 µM, coculture fibroblast: C12385	0.654	0.635	0.391	0.238	0.105	0.0709	0.0445	0.0391	0.0321
100 µM, coculture fibroblast: H6013	0.925	0.798	0.525	0.299	0.196	0.168	0.129	0.107	0.071
100 µM, coculture fibroblast: H6019	0.689	0.5876	0.42	0.269	0.174	0.13	0.0863	0.0794	0.0567
100 µM, coculture fibroblast: H6076	0.943	0.758	0.547	0.445	0.365	0.324	0.283	0.249	0.227
100 µM, coculture fibroblast: H6231	0.905	0.91	0.743	0.592	0.383	0.28	0.198	0.175	0.144
100 µM, coculture fibroblast: HADF	0.963	0.882	0.7	0.399	0.218	0.175	0.129	0.111	0.0703
100 µM, coculture fibroblast: HCFa	0.952	0.8999	0.8274	0.615	0.348	0.263	0.199	0.172	0.132
100 µM, coculture fibroblast: HCPF	0.952	0.792	0.591	0.463	0.322	0.254	0.219	0.182	0.156
100 µM, coculture fibroblast: HHSteC	0.942	0.8756	0.686	0.396	0.243	0.202	0.151	0.131	0.0939
100 µM, coculture fibroblast: HMF	0.756	0.929	0.66	0.503	0.329	0.252	0.185	0.157	0.126
100 µM, coculture fibroblast: HPFa	0.959	0.932	0.782	0.511	0.355	0.301	0.238	0.21	0.169
100 µM, coculture fibroblast: HUF	0.759	0.692	0.572	0.38	0.252	0.208	0.154	0.137	0.115
100 µM, coculture fibroblast: Hs5	0.953	0.766	0.578	0.445	0.3336	0.258	0.208	0.17	0.144
100 µM, coculture fibroblast: Hs27A	0.933	0.922	0.869	0.559	0.339	0.285	0.239	0.209	0.165
100 µM, coculture fibroblast: Hs343T	0.776	0.955	0.6904	0.548	0.387	0.309	0.249	0.223	0.1934
100 µM, coculture fibroblast: WS1	0.706	0.642	0.324	0.138	0.066	0.0351	0.0366	0.0286	0.0239

The reference is the same well before dosing, and untreated signal decays as well.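 Fibroblast labels denote human fibroblasts, mainly primary ones from uterus (C12385, HUF), lung (H6013), bone (Hs27A), adrenal (HADF) and skin (WS1), plus mammary HMF and breast cancer-associated Hs343T. Cancer cells are basal-like or mesenchymal-like triple-negative breast cancer lines. A hit is a response shift exceeding 3x replicate standard deviation. The tissue of the other fibroblasts is not given here.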
